These results are taken from publication PMC10866687.

This assay concerns the target α-tubulin, endogenous (human (endogenous in MDA-MB-231)). Put plainly: proximity ligation; Duolink PLA on methanol-fixed MDA-MB-231 cells stably expressing GFP fusions, anti-GFP and anti-α-tubulin; MAP1B siRNA in Fig. 6 B (proximity not affected).

These are yes or no findings as the source states them, for the method shown. In cells and extracts the contact can be indirect. Tags and fused reporters may be left off the sequences shown.

B1: Bet1-GFP, in MDA-MB-231 cells (MDA/Bet1-GFP) (protein, UniProt O15155 1-118)
chain: MRRAGLGEGVPPGNYGNYGYANSGYSACEEENERLTESLRSKVTAIKSLSIEIGHEVKTQNKLLAEMDSQFDSTTGFLGKTMGKLKILSRGSQTKLLCYMMLFSLFVFFIIYWIIKLR
Consider B1, for which the binding result is “no binding”.
